# PubChem BioAssay AID1224830 | NIAID – 2016
# Screen: 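Genes whose knock-down alters the TNF-alpha reporter response to LPS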 (primary screen)
# Cells: human THP-1 monocytic leukaemia cells, TNF dual-luciferase reporter clone, PMA-differentiated to macrophage-like cells
# Knock-down reagent: siRNA pool against human genes, 50 nM
# Time to read-out: LPS for 4 h, given about 3 days after siRNA transfection
# Challenge: bacterial LPS (TLR4 ligand), 10 ng/ml
# Detection: 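Ratio of firefly to renilla light, scaled to the plate median and expressed as a robust z-score per replicate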
# Scale: TNF reporter robust z-score: higher = stronger TNF reporter response to LPS
# Active means: 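Each well counts as active if its z-score is over 2.8 or under -1.5; controls are left without a call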
# Here is one part, drawn at random, of about 18,000 reagents tested. About 2,900 of all reagents (16%) count as active. 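Calls are made per well; low scores hint the gene aids the LPS response, high scores that it dampens it.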 Entries without a mark were called inactive. Repeated entries: four replicate wells of each siRNA pool.
Target gene,TNF reporter robust z-score
MIEF1 (GeneID 54471),0.62
MIEF1 (GeneID 54471),0.81
MIEF1 (GeneID 54471),1.38
MIEF1 (GeneID 54471),1.61
COX4I2 (GeneID 84701),-0.91
COX4I2 (GeneID 84701),-0.9
COX4I2 (GeneID 84701),-1.18
COX4I2 (GeneID 84701),-0.78
DPM2 (GeneID 8818),0.13
DPM2 (GeneID 8818),0.91
DPM2 (GeneID 8818),0.79
DPM2 (GeneID 8818),0.04
VAC14 (GeneID 55697),0.01
VAC14 (GeneID 55697),-0.15
VAC14 (GeneID 55697),0.05
VAC14 (GeneID 55697),-0.05

Quoted from the entries so far for reference:
Target gene,TNF reporter robust z-score
COX4I2 (GeneID 84701),-0.9
COX4I2 (GeneID 84701),-1.18
COX4I2 (GeneID 84701),-0.78
DPM2 (GeneID 8818),0.13
DPM2 (GeneID 8818),0.91
DPM2 (GeneID 8818),0.79

Continued.
Target gene,TNF reporter robust z-score
LRRC63 (GeneID 220416),-1
LRRC63 (GeneID 220416),-1.05
LRRC63 (GeneID 220416),-1.33
LRRC63 (GeneID 220416),-0.1
HDGFL3 (GeneID 50810),0.16
HDGFL3 (GeneID 50810),0.05
HDGFL3 (GeneID 50810),1.59
HDGFL3 (GeneID 50810),0.6
FGFR1 (GeneID 2260),-0.53
FGFR1 (GeneID 2260),-0.28
FGFR1 (GeneID 2260),-0.97
FGFR1 (GeneID 2260),-0.35
MAGI3 (GeneID 260425),1.08
MAGI3 (GeneID 260425),0.57
MAGI3 (GeneID 260425),1.41
SORCS2 (GeneID 57537),0
SORCS2 (GeneID 57537),0.94
SORCS2 (GeneID 57537),0.53
SORCS2 (GeneID 57537),-0.19
ICAM5 (GeneID 7087),3.86 (active)
ICAM5 (GeneID 7087),1.39
ICAM5 (GeneID 7087),0.58
ICAM5 (GeneID 7087),0.89
ARMC3 (GeneID 219681),1.27
ARMC3 (GeneID 219681),0.92
ARMC3 (GeneID 219681),0.62
ARMC3 (GeneID 219681),0.97
STX6 (GeneID 10228),0.1
STX6 (GeneID 10228),1.88
STX6 (GeneID 10228),0.2
STX6 (GeneID 10228),-0.15
